The supplement of paper PMC11060735
± gives the standard deviation of the averaged measurements. In all, about 1,800 compounds were measured (“GFP- (p16Ink4a-) cell count relative to negative-control wells”: median about 0.99, lowest 2% from about 0.5 on). The list shows a part of the results.

These molecules were tested on mouse p16Ink4a+/- lung fibroblasts (INKBRITE, bleomycin-injured) (assay: GFP- (p16Ink4a-) cell count relative to negative-control wells (fold of vehicle); higher = more p16Ink4a- cells surviving). Details: 1 µM; 3 days.
With `Nc1ncnc2c1c(-c1cnc3[nH]ccc3c1)nn2C1CCCC1` the GFP- was 0.581. Molecule `O=C(CCc1ccc(O)cc1)c1c(O)cc(O)cc1O` [Phloretin] has a GFP- of 0.984. Molecule `CC(C)(Oc1ccc(Cl)cc1)C(=O)OCCOC(=O)c1cccnc1` [Etofibrate] has a GFP- of 0.897. In the case of `Cn1cc(C2=C(c3ccc(Cl)cc3Cl)C(=O)NC2=O)c2ccccc21`, the GFP- is reported as 0.845. `CCCC(=O)Nc1ccc(OCC(O)CNC(C)C)c(C(C)=O)c1` (centres undefined) [Acebutolol] was tested, and the GFP- was 1.04. `CCn1c(-c2nonc2N)nc2c(C#CC(C)(C)O)ncc(OC[C@H]3CCCNC3)c21` gave a GFP- of 1.05. Molecule `C[C@H](NC(=O)CCc1nc(O)c2ccccc2n1)c1ccccc1` has a GFP- of 0.998 ± 0.037. `CCN(c1cc(-c2ccc(CN3CCOCC3)cc2)cc(C(=O)NCc2c(C)cc(C)nc2O)c1C)C1CCOCC1` was tested, and the GFP- was 0.827 ± 0.15. `CCC[C@H](NC(=O)/C(C#N)=C/c1cccc(Br)n1)c1ccccc1` [Degrasyn] gave a GFP- of 0.963. Molecule `CCC[C@H](NC(=O)[C@@H]1[C@H]2CCC[C@H]2CN1C(=O)[C@@H](NC(=O)[C@@H](NC(=O)c1cnccn1)C1CCCCC1)C(C)(C)C)C(=O)C(=O)NC1CC1` [Telaprevir] has a GFP- of 0.892. In the case of `Cc1nc(NC(=O)N2CCC[C@H]2C(N)=O)sc1-c1ccnc(C(C)(C)C(F)(F)F)c1`, the GFP- is reported as 0.875. With `COc1ccc(CC2c3cc(OC)c(OC)cc3CC[N+]2(C)CCC(=O)OCCCCCOC(=O)CC[N+]2(C)CCc3cc(OC)c(OC)cc3C2Cc2ccc(OC)c(OC)c2)cc1OC` (centres undefined) [Atracurium Besylate] the GFP- was 1.04. `CC(=O)[C@H]1CC[C@H]2[C@@H]3CC=C4C[C@@H](O)CC[C@]4(C)[C@H]3CC[C@]12C` [Pregnenolone] showed a GFP- of 1.08. `COc1cccc(Nc2c(C(N)=O)cnc3c(C)cc(S(=O)(=O)c4cccc(C(=O)N(C)C)c4)cc23)c1` was tested, and the GFP- was 0.849. Work on `CC(C(=O)O)c1ccc2c(c1)CC(=O)c1ccccc1S2` (centres undefined) [Zaltoprofen] yielded a GFP- of 1.01. `c1ccc2c(Oc3nc(Nc4ccc(N5CCOCC5)cc4)c4ncn(C5CCCCC5)c4n3)cccc2c1` [Purmorphamine] was tested, and the GFP- was 1.22. In the case of `COC(=O)C1=CO[C@@H](O[C@@H]2O[C@H](CO)[C@@H](O)[C@H](O)[C@H]2O)[C@@H]2C(CO)=CC[C@H]12` [Geniposide], the GFP- is reported as 0.964. `CC(c1cc2ccccc2s1)N(O)C(N)=O` (centres undefined) [Zileuton] was tested, and the GFP- was 1.16. `COc1ccc(Cl)cc1NC(=O)Nc1cc(C)nc2ccccc12` showed a GFP- of 0.935. For `C=C[C@H]1CN2CC[C@H]1C[C@H]2[C@H](O)c1ccnc2ccc(OC)cc12` [Quinine], the GFP- was 1.05. `C[C@@H]1[C@H](O)[C@@H](C)/C=C/C=C/C=C/C=C/C=C/C=C/C=C/[C@H](O[C@@H]2O[C@H](C)[C@@H](O)[C@H](N)[C@@H]2O)C[C@@H]2O[C@](O)(C[C@@H](O)C[C@@H](O)[C@H](O)CC[C@@H](O)C[C@@H](O)CC(=O)O[C@H]1C)C[C@H](O)[C@H]2C(=O)O` [Amphotericin B] gave a GFP- of 0.996. `O=c1c(O)c(-c2ccc(O)cc2O)oc2cc(O)cc(O)c12` [Morin] gave a GFP- of 0.998. `C[C@@H]1C/C=C/C=C/C=C/C=C/C(O[C@@H]2O[C@H](C)[C@@H](O)[C@H](N)[C@@H]2O)C[C@@H]2O[C@](O)(C[C@@H](O)C[C@H]3O[C@@H]3/C=C/C(=O)O1)C[C@H](O)[C@H]2C(=O)O` (some centres undefined) [Natamycin] showed a GFP- of 0.978. With `CCN(CC)CCCC(C)Nc1c2ccc(Cl)cc2nc2ccc(OC)cc12` (centres undefined) [Quinacrine] the GFP- was 0.987. For `O=C(O)CCc1ccc(NCc2cccc(Oc3ccccc3)c2)cc1`, the GFP- was 0.98. In the case of `O=C1CCc2cc(OCCCCc3nnnn3C3CCCCC3)ccc2N1` [Cilostazol], the GFP- is reported as 1.09. `N#Cc1ccc2[nH]cc(CCCCN3CCN(c4ccc5oc(C(N)=O)cc5c4)CC3)c2c1` [Vilazodone] was tested, and the GFP- was 1.07. Work on `CCCCC1=NC2(CCCC2)C(=O)N1Cc1ccc(-c2ccccc2-c2nn[nH]n2)cc1` [Irbesartan] yielded a GFP- of 0.918. For `CN1CCC(=C2c3ccccc3CCc3cccnc32)CC1` [Azatadine], the GFP- was 0.964. In the case of `COc1ccc([C@@H]2CC(=O)c3c(O)cc(O)cc3O2)cc1O` [Hesperetin], the GFP- is reported as 0.837. Molecule `CC(C)=CCC[C@](C)(O[C@@H]1O[C@H](CO[C@@H]2OC[C@@H](O)[C@H](O)[C@H]2O)[C@@H](O)[C@H](O)[C@H]1O)[C@H]1CC[C@]2(C)[C@@H]1[C@H](O)C[C@@H]1[C@@]3(C)CC[C@H](O[C@@H]4O[C@H](CO)[C@@H](O)[C@H](O)[C@H]4O)C(C)(C)[C@@H]3CC[C@]12C` [Gynostemma Extract] has a GFP- of 1.07. Work on `C[C@H](NC(=O)/C(C#N)=C/c1cccc(Br)n1)c1ccccc1` yielded a GFP- of 0.999 ± 0.049. `COc1cc(/C=C/C(=O)O)ccc1O` [Ferulic Acid] showed a GFP- of 1.01. Molecule `O=C(O[C@@H]1Cc2c(O)cc(O)cc2O[C@@H]1c1cc(O)c(O)c(O)c1)c1cc(O)c(O)c(O)c1` [Epigallocatechin-3-monogallate] has a GFP- of 1.06. With `O=C(O)C1=CC(O)C(O)[C@H](O)C1` (some centres undefined) [Shikimic Acid] the GFP- was 1.31. `NC[C@H]1CC[C@@H](C(=O)O)CC1` [Tranexamic Acid] was tested, and the GFP- was 0.988. For `O=C(O)CCc1nc(-c2ccccc2)c(-c2ccccc2)o1` [Oxaprozin], the GFP- was 1.04. `CNCc1ccc(-c2cc(-c3nc(-c4ccc(S(=O)(=O)C(C)C)cc4)cnc3N)on2)cc1` was tested, and the GFP- was 1.03. `CCOC(=O)c1ccc(N)cc1` [Benzocaine] showed a GFP- of 0.902. `NC(=O)c1cccc(-c2cccc(OC(=O)NC3CCCCC3)c2)c1` showed a GFP- of 1.08. Work on `CCOC(=O)[C@H](CCc1ccccc1)N[C@H]1CCCN2CCC[C@@H](C(=O)O)N2C1=O` [Cilazapril] yielded a GFP- of 1.04. In the case of `CCOc1ccc2nc3cc(N)ccc3c(N)c2c1` [Ethacridine Lactate], the GFP- is reported as 0.84. `CC1(C)CCC(c2ccc(Cl)cc2)=C(CN2CCN(c3ccc(C(=O)NS(=O)(=O)c4ccc(N[C@H](CCN5CCOCC5)CSc5ccccc5)c(S(=O)(=O)C(F)(F)F)c4)cc3)CC2)C1` [Navitoclax] showed a GFP- of 0.944. Work on `CC(C)c1nc(CN(C)C(=O)N[C@H](C(=O)N[C@@H](Cc2ccccc2)C[C@H](O)[C@H](Cc2ccccc2)NC(=O)OCc2cncs2)C(C)C)cs1` [Ritonavir] yielded a GFP- of 0.998.
